Test results as given in article doi:10.1101/2022.06.06.494494.
No constants are given. Whether binding was seen depends on the method and setting. Binding seen in cells or lysates may run through a third protein. Some entries that bind do so weakly or less than the wild type. For some of these results: Where a sequence is shown, tags or fusion partners need not be part of it.

The chains behind the UniProt entries cited, without tags or fusion partners.
UniProt P52630: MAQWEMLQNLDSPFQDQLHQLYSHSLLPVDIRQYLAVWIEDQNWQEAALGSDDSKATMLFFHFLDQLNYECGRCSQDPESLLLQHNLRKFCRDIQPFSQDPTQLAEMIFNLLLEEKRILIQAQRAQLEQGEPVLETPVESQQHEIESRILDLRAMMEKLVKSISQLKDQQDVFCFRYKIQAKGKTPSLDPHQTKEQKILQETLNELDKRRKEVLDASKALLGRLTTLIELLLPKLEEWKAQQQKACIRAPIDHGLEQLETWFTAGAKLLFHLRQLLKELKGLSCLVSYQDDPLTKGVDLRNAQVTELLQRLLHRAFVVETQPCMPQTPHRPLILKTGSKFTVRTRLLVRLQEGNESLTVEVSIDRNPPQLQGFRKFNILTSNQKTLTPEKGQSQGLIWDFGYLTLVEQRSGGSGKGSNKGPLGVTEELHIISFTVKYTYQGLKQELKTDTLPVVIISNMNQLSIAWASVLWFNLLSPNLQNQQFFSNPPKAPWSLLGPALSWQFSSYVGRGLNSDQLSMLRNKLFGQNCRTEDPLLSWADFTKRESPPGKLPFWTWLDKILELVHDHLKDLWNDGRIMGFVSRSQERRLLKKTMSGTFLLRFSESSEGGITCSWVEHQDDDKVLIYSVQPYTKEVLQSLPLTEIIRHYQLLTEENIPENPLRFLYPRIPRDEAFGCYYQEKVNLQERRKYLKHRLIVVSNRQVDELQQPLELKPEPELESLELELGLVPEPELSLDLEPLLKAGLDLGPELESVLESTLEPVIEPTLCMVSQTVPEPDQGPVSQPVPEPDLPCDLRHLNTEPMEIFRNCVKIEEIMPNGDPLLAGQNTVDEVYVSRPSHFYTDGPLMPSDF

T1: HA-tagged IRF9 (UniProt Q00978)
T1 sequence: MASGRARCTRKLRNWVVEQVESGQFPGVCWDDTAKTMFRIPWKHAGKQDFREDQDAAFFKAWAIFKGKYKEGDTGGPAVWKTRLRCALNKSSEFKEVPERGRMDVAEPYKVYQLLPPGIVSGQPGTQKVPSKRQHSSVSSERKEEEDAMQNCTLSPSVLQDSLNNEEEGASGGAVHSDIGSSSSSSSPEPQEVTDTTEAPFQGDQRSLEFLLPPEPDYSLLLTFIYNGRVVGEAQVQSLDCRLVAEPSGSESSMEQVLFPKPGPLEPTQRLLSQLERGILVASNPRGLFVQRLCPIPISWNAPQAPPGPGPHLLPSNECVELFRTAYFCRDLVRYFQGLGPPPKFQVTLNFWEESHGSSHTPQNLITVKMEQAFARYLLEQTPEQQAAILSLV

T2: Flag-tagged IRF9, Q00978
T2 chain: T1 sequence

B1: HA-tagged STAT1, P42224 1-750 (protein)
chain: MSQWYELQQLDSKFLEQVHQLYDDSFPMEIRQYLAQWLEKQDWEHAANDVSFATIRFHDLLSQLDDQYSRFSLENNFLLQHNIRKSKRNLQDNFQEDPIQMSMIIYSCLKEERKILENAQRFNQAQSGNIQSTVMLDKQKELDSKVRNVKDKVMCIEHEIKSLEDLQDEYDFKCKTLQNREHETNGVAKSDQKQEQLLLKKMYLMLDNKRKEVVHKIIELLNVTELTQNALINDELVEWKRRQQSACIGGPPNACLDQLQNWFTIVAESLQQVRQQLKKLEELEQKYTYEHDPITKNKQVLWDRTFSLFQQLIQSSFVVERQPCMPTHPQRPLVLKTGVQFTVKLRLLVKLQELNYNLKVKVLFDKDVNERNTVKGFRKFNILGTHTKVMNMEESTNGSLAAEFRHLQLKEQKNAGTRTNEGPLIVTEELHSLSFETQLCQPGLVIDLETTSLPVVVISNVSQLPSGWASILWYNMLVAEPRNLSFFLTPPCARWAQLSEVLSWQFSSVTKRGLNVDQLNMLGEKLLGPNASPDGLIPWTRFCKENINDKNFPFWLWIESILELIKKHLLPLWNDGCIMGFISKERERALLKDQQPGTFLLRFSESSREGAITFTWVERSQNGGEPDFHAVEPYTKKELSAVTFPDIIRNYKVMAAENIPENPLKYLYPNIDKDHAFGKYYSRPKEAPEPMELDGPKGTGYIKTELISVSEVHPSRLQTTDNLLPMSPEEFDEVSRIVGSVEFDSMMNTV

Key:
Experiment in all cases: co-IP
[1] = molecular target: T1, HA-tagged IRF9
[2] = molecular target: HA-tagged STAT2 (UniProt P52630)
[3] = molecular target: HA-tagged STAT1 (UniProt P42224)
[4] = molecular target: T2, Flag-tagged IRF9, Q00978; conditions: remark: other sources report otherwise

Molecule	binding [1]	binding [2]	binding [3]	binding [4]
S2 domain (aa 688-1273) of SARS-CoV-2 S protein with Flag-tag (from UniProt P0DTC2 688-1273) (domain or fragment)	binds	binds	binds	
B1				binds
